The results in this text go back to the supplement of paper PMC12819154, “High-throughput peptide-centric local stability assay extends protein–ligand identification to membrane proteins, tissues and bacteria” (Nature Structural & Molecular Biology, 2025).

Protein sequences, listed by entry. Tags and fused reporters are not part of them. Lines headed by an entry give the natural chain unless they say otherwise; changes in a name come on top.
UniProt Q02833: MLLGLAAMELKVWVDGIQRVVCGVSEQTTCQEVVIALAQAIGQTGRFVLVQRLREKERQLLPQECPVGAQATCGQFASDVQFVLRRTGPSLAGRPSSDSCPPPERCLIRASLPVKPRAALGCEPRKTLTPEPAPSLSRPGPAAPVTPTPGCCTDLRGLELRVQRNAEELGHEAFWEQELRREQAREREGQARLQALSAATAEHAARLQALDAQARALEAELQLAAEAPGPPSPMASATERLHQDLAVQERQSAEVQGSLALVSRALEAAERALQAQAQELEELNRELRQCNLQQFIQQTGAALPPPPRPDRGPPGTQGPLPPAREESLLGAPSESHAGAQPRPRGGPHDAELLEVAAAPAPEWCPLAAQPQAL
UniProt Q12766: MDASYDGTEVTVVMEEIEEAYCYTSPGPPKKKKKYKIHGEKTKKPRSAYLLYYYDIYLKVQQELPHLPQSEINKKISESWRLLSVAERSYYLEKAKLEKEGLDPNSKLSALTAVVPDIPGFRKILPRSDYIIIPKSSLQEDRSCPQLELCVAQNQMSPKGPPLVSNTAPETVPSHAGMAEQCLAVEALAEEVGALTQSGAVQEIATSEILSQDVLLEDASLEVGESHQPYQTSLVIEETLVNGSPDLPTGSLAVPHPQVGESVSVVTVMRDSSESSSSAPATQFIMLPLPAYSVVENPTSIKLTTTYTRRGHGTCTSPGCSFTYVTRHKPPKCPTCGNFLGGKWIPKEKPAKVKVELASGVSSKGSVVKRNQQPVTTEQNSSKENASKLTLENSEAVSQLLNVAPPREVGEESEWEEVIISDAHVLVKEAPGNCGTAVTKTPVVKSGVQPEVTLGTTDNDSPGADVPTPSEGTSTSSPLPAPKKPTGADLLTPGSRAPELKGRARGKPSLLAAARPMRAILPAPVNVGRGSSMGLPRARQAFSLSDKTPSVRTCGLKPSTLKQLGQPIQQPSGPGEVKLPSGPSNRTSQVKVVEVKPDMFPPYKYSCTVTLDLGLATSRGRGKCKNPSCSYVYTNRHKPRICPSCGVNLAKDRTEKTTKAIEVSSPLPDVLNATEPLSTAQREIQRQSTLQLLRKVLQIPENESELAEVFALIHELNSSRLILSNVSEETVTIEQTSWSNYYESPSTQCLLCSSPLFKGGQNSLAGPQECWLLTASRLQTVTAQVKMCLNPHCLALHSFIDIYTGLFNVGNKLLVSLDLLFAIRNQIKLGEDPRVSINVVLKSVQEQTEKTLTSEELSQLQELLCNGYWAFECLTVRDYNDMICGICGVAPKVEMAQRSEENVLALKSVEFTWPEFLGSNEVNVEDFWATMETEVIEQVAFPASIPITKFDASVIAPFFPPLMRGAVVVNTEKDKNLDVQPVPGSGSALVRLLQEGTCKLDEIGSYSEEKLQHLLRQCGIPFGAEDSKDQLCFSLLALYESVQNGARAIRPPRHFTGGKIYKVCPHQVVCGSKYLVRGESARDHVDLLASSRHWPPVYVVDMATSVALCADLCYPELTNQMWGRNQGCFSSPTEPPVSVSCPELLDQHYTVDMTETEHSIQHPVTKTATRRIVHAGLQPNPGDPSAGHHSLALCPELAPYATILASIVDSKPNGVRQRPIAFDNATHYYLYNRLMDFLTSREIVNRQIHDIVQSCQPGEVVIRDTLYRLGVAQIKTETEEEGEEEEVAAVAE
UniProt Q02809: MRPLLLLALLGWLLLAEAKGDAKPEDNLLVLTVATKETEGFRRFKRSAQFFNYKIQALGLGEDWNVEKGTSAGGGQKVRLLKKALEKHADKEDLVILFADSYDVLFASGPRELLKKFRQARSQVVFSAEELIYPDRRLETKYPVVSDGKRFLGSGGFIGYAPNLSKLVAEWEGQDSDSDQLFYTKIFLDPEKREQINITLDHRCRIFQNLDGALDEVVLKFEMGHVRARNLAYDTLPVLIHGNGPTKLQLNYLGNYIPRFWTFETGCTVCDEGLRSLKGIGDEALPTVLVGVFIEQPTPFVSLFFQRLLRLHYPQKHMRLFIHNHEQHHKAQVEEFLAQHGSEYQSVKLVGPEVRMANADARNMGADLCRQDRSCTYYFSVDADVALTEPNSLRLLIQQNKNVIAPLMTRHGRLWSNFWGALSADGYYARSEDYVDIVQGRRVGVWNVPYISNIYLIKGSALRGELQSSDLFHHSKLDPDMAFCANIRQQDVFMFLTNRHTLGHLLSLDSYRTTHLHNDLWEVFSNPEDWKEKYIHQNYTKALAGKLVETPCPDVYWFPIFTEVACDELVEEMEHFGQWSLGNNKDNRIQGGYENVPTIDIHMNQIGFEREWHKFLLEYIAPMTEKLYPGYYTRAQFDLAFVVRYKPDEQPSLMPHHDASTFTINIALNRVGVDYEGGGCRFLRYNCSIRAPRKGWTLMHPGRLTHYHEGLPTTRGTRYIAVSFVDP
UniProt Q02446, whole entry: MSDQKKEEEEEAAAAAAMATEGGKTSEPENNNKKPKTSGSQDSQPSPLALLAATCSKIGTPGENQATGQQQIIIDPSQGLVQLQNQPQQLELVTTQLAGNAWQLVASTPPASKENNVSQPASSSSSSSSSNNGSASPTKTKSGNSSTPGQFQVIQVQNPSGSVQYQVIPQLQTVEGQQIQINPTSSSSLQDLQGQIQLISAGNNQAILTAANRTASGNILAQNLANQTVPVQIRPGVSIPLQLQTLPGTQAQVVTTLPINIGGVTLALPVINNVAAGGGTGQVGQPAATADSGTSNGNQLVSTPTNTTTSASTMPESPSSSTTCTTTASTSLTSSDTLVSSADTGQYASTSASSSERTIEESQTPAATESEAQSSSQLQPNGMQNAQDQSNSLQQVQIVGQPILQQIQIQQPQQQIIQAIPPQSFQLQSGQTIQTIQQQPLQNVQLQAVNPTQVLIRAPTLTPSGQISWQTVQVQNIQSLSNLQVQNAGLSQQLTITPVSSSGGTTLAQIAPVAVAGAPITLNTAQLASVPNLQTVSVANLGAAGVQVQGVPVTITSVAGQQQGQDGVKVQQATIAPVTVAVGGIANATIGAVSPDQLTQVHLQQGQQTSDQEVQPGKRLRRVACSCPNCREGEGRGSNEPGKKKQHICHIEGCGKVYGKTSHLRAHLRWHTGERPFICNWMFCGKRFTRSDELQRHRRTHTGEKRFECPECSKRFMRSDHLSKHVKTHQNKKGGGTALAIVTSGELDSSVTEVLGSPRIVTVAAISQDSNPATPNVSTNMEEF
UniProt Q02078: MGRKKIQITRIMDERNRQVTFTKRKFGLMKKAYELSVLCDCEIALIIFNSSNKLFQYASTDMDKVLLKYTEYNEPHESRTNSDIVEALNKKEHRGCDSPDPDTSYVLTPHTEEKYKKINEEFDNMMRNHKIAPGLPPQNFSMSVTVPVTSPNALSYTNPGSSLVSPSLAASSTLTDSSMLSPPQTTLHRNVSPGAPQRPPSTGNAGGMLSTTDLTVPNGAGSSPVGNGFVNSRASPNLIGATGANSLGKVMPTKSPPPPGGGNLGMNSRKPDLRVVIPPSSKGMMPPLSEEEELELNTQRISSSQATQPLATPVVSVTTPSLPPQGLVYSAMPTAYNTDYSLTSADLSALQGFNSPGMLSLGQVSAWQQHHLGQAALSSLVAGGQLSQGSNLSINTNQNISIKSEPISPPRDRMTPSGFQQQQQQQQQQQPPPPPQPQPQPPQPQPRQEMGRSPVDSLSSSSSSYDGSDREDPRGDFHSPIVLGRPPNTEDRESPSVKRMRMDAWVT
UniProt Q08117: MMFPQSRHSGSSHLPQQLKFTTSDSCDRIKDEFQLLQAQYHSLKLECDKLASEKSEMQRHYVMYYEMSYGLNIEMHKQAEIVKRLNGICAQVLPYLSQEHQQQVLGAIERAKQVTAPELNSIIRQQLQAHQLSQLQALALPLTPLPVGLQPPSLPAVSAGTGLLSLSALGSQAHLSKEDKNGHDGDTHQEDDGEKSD
UniProt Q06547, whole entry: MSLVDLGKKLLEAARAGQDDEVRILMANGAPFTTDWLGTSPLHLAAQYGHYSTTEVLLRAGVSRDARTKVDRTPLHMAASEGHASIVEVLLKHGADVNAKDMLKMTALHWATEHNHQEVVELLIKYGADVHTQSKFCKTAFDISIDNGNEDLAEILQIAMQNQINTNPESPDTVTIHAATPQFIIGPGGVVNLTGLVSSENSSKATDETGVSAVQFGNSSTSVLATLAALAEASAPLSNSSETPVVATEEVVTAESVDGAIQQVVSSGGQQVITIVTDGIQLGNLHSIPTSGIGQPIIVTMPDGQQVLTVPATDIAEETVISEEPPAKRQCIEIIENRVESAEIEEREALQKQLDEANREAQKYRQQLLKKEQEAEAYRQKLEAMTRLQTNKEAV
UniProt Q0P6D6: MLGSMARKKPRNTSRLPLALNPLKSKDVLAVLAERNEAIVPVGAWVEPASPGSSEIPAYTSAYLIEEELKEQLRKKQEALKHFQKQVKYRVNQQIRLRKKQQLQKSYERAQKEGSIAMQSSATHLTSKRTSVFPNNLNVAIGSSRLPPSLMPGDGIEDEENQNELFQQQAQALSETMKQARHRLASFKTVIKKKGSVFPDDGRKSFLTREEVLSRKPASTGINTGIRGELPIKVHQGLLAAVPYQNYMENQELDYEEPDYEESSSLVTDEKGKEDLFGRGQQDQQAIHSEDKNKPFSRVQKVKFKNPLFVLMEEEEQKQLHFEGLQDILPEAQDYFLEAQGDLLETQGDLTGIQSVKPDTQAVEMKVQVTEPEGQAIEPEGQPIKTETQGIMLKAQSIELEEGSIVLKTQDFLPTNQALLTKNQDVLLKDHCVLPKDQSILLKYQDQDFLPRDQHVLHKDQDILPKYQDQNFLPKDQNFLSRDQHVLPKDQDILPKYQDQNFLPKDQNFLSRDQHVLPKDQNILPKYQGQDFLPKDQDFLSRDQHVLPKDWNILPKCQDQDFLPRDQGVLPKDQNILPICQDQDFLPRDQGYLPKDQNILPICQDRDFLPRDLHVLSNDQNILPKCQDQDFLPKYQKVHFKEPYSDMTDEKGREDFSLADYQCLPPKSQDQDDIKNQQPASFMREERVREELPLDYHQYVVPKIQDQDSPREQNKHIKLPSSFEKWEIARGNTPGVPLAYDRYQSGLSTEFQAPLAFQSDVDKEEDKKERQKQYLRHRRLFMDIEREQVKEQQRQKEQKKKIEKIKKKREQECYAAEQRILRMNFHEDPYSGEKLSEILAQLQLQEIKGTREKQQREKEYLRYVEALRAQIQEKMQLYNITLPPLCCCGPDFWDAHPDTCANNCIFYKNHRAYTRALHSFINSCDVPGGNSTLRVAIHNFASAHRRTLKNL
UniProt Q08752, whole entry: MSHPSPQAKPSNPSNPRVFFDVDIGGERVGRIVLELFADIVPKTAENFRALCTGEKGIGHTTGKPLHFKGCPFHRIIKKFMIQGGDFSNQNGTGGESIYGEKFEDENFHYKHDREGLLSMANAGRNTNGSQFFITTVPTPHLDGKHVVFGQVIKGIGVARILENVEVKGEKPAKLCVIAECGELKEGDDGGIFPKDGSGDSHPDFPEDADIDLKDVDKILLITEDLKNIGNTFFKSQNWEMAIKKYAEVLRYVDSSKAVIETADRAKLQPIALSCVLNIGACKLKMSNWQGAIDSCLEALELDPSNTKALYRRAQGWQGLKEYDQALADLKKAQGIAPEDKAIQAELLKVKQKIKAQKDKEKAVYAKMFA

The other results are listed elsewhere or left out. Most values lie at the level of the controls, where differences are scatter.

Compound in the test: Cc1nc(Nc2ncc(C(=O)Nc3c(C)cccc3Cl)s2)cc(N2CCN(CCO)CC2)n1 [dasatinib]
Nature of the test: log2 fold change of tryptic peptide abundance, ligand vs vehicle (limited proteolysis) (log2 ratio); higher = more trypsin-susceptible (destabilized). The following applies: ligand concentration: 5 uM; sample: K562 cleared lysate.
For the target “UniProt Q03188 (peptide sequence: NMEEHEEMGNDCVSKK, peptide start residue: 461)”, the log2 fold change is -0.979.
As for “RASSF7 (peptide sequence: NAEELGHEAFWEQELR, peptide start residue: 165) (UniProt Q02833)”, the figure is 0.611; as for “PTPN11 (peptide sequence: GVDCDIDVPK, peptide start residue: 483) (UniProt Q06124)”, 0.183; as for “HMGXB3 (peptide sequence: ICPSCGVNLAK, peptide start residue: 641) (UniProt Q12766)”, 0.285.
Take “PLOD1 (peptide sequence: HTLGHLLSLDSYR, peptide start residue: 500) (UniProt Q02809)”: the log2 fold change is -0.638.
For the target “SP4 (peptide sequence: FECPECSKR, peptide start residue: 707) (UniProt Q02446)”, the log2 fold change is -0.866.
As for “MEF2A (peptide sequence: YTEYNEPHESR, peptide start residue: 69) (UniProt Q02078)”, the figure is -0.653; as for “UniProt Q08117 (peptide sequence: NGHDGDTHQEDDGEKSD, peptide start residue: 181)”, 0.18; as for “GABPB1 (peptide sequence: TPLHMAASEGHASIVEVLLK, peptide start residue: 73) (UniProt Q06547)”, 0.355.
“UniProt Q0P6D6 (peptide sequence: EQECYAAEQR, peptide start residue: 810)”: the log2 fold change was found to be 0.213.
“PPID (peptide sequence: YVDSSKAVIETADR, peptide start residue: 252) (UniProt Q08752)”: the log2 fold change came out at 0.289.
